Laboratory results published in publication PMC4392834.
These are yes or no findings as the source states them, for the method shown. In cells and extracts the contact can be indirect.

What follows are binders tested against HoxE (VC fusion) (Nematostella) (assay: split reporter; Venus BiFC: VC-Hox and VN-TF co-expressed in live Drosophila embryos with the corresponding Hox-Gal4 driver (abdA-Gal4 for AbdA); epidermis, stage 10-12, quantified at stage 10; affected if equal or lower than 50% of wild type, stronger if 120% or more).

| binding | Binder |
| --- | --- |
| no binding | VN-Zfh-1 (protein, UniProt P28166 1-1054) MLSCLAPSSSRFGQEDTIIQQSMPSTSPFAMQFPSLASTLLHHNQSPKHSNPGSSGIQDAHPNQPGAAADAFLVKCTQCHKRFPEYQSLSEHIASEHPHDKLNCGAAQPESDAEDEQSNMSGSSRRYAKSPLASNNNSSTANANNNSTSSQSMNNNSELAKNHNSANKMSPMCSPGSLTPGDLFAQLQHPPPQLPPHLHAQFMAAAASLAMQSARTASSPSQQQQQQLQQQQQLQQQQQHQMAMQQLLPPQLPGSNSSVGSNSAYDLDLSAPRSTSSPGSTTGDLSGAYPCMQCTASFASREQLEQHEQLHSPCGPAAVSNVSQTCRICHKAFANVYRLQRHMISHDESALLRKFKCKECDKAFKFKHHLKEHVRIHSGEKPFGCDNCGKRFSHSGSFSSHMTSKKCISMGLKLNNNRALLKRLEKSPGSASSASRRSPSDHGKGKLPEQPSLPGLPHPMSYFASDAQVQGGSAAPAPFPPFHPNYMNAALLAFPHNFMAAAAGLDPRVHPYSIQRLLQLSAAGQQQREEEREEQQKQQQHDEEETPDEPKLVMDIEEPETKEMAPTPEATEAATPIKREESREASPDPESYRSSSQAIKQEQEPLNVAEERQTPVEEHAPVEHAADLRCSRCSKQFNHPTELVQHEKVLCGLIKEELEQHFQQQQATSFALASASEEDEEDEEMDVEEEPRQESGERKVRVRTAINEEQQQQLKQHYSLNARPSRDEFRMIAARLQLDPRVVQVWFQNNRSRERKMQSFQNNQAAGAAPPMPIDSQASLTREDQPLDLSVKRDPLTPKSESSPPYIAPPSGEALNPEAINLSRKFSTSASMSPASISPSSAAALYFGAAPPPSPPNSQLDSTPRSGQAFPGLPPYMLPMSLPMEALFKMRPGGDFASNHALMNSIKLPDYRGTSLSPGGSEKRSWRDDDSRISHEDEFGAGVLMPPKPRRGKAETHGHAGDPDLPYVCDQCDKAFAKQSSLARHKYEHSGQRPYQCIECPKAFKHKHHLTEHKRLHSGEKPFQCSKCLKRFSHSGSYSQHMNHRYSYCKPYRE |
| no binding | VN-Mef2 (protein, UniProt P40791 1-540) MGRKKIQISRITDERNRQVTFNKRKFGVMKKAYELSVLCDCEIALIIFSSSNKLYQYASTDMDRVLLKYTEYNEPHESLTNKNIIEKENKNGVMSPDSPEAETDYTLTPRTEAKYNKIDEEFQNMMQRNQMAIGGAGAPRQLPNSSYTLPVSVPVPGSYGDNLLQASPQMSHTNISPRPSSSETDSGGMSLIIYPSGSMLEMSNGYPHSHSPLVGSPSPGPSPGIAHHLSIKQQSPGSQNGRASNLRVVIPPTIAPIPPNMSAPDDVGYADQRQSQTSLNTPVVTLQTPIPALTSYSFGAQDFSSSGVMNSADIMSLNTWHQGLVPHSSLSHLAVSNSTPPPATSPVSIKVKAEPQSPPRDLSASGHQQNSNGSTGSGGSSSSTSSNASGGAGGGGAVSAANVITHLNNVSVLAGGPSGQGGGGGGGGSNGNVEQATNLSVLSHAQQHHLGMPNSRPSSTGHITPTPGHDKYEGYPYRALMGHNPRWNLNFAGAPSSDQDVRLAAVAVQQQQQQPHQQQQLGDYDAPNHKRPRISGGWGT |

| Binder | binding |
| --- | --- |
| VN-Pan (protein, UniProt P91943 1-751) MPHTHSRHGSSGDDLCSTDEVKIFKDEGDREDEKISSENLLVEEKSSLIDLTESEEKGHKISRPDHSPVFNKLDTHAPSFNMGYLVSPYSYANGSPSGLPVTMANKIGLPPFFCHNADPLSTPPPAHCGIPPYQLDPKMGLTRPALYPFAGGQYPYPMLSSDMSQVASWHTPSVYSASSFRTPYPSSLPINTTLASDFPFRFSPSLLPSVHATSHHVINAHSAIVGVSSKQECGVQDPTTNNRYPRNLEAKHTSNAQSNESKETTNDKKKPHIKKPLNAFMLYMKEMRAKVVAECTLKESAAINQILGRRWHELSREEQSKYYEKARQERQLHMELYPGWSARDNYGYVSKKKKRKKDRSTTDSGGNNMKKCRARFGLDQQSQWCKPCRRKKKCIRYMEALNGNGPAEDGSCFDEHGSQLSDDDEDDYDDDKLGGSCGSADETNKIEDEDSESLNQSMPSPGCLSGLSSLQSPSTTMSLASPLNMNANSATNVIFPASSNALLIVGADQPTAQQRPTLVSTSGSSSGSTSSISTTPNTSSTVSPVTCMTGPCLGSSQERAMMLGNRFSHLGMGLSPPVVSTSTSKSEPFFKPHPTVCNNPIFALPSIGNCSLNISSMPNTSRNPIGANPRDINNPLSINQLTKRREYKNVELIEASESKTIVAHAATSIIQHVAVNGYHANHSLLNSNLGHLHHQLNNRTENPNRSEQTMLSVSNHSVNSSECHKESDSQAIVSSNPPNAGSSDNGVISVS | no binding |
